# Source: patent publication US20210221886A1
# No constants are given. Whether binding was seen depends on the method and setting. A result given as binding can be weak or reduced; the word gives no strength.
# B1: anti-CD47 antibody STI-6643 (antibody, human IgG4, V domains shown)
# VH: QVQLVQSGAEVKKPGASVKVSCKASGYTFTSYYMHWVRQAPGQGLEWMGIINPSGGSTSYAQKFQGRVTMTRDTSTSTVYMELSSLRSEDTAVYYCARSTLWFSEFDYWGQGTLVTVSS
# VL: QSVLTQPSSVSASPGQSITISCSGTSSDVGGHNYVSWYQQHPGKAPKLMIYDVTKRPSGVPDRFSGSKSGNTASLTVSGLQAEDEADYYCLSYAGSRVYVFGTGTKLTVL
# Biological target: dog CD47 (dog (beagle))
# Test: flow cytometry on dog red blood cells, APC anti-human IgG Fc detection; upper curve
binder,measurement,value
B1,binding,binds
